# Data as given in the supplement of paper PMC10849652.
# Amino acid sequences for entries named in this document (tags omitted). A change or cut given only in a name is not applied to a line headed by its entry.
# UniProt Q9H7E2: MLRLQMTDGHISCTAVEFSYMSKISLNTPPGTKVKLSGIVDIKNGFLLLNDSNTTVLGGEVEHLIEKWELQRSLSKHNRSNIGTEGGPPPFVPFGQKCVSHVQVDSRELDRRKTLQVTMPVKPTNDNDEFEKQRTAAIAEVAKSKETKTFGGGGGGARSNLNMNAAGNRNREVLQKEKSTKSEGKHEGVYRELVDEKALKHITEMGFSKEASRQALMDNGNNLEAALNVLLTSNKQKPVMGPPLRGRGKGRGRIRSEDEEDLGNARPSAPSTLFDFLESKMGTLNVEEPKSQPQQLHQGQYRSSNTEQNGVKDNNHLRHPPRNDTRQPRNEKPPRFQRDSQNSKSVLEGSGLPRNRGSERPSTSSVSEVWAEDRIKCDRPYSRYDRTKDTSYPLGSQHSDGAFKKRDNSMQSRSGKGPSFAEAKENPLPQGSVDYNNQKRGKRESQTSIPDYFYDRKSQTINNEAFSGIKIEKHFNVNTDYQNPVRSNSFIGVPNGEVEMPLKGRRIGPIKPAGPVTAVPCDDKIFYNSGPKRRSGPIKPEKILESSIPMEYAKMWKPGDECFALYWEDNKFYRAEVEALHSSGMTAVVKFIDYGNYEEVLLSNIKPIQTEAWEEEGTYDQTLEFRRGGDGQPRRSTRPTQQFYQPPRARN
# UniProt Q13488, whole entry, looked up: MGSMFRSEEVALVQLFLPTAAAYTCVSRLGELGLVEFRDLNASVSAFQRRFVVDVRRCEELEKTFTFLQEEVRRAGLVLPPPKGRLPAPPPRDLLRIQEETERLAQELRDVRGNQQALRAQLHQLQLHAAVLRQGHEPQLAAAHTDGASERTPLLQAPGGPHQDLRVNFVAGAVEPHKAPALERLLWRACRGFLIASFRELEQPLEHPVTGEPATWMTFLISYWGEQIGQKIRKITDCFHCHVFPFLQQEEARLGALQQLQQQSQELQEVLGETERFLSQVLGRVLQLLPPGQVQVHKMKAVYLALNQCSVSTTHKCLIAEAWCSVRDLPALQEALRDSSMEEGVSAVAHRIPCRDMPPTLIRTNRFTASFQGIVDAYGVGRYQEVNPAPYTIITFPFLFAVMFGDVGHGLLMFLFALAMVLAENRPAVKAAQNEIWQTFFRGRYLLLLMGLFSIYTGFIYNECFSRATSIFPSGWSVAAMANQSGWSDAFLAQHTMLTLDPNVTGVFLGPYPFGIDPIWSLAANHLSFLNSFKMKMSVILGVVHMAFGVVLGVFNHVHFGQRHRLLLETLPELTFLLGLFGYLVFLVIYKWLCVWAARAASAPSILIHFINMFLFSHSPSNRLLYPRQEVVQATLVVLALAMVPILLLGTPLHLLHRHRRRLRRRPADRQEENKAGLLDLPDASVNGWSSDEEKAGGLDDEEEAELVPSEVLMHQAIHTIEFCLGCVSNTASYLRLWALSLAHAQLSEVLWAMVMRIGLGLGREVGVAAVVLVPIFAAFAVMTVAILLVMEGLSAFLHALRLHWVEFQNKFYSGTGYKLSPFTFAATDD
# UniProt Q9NU19: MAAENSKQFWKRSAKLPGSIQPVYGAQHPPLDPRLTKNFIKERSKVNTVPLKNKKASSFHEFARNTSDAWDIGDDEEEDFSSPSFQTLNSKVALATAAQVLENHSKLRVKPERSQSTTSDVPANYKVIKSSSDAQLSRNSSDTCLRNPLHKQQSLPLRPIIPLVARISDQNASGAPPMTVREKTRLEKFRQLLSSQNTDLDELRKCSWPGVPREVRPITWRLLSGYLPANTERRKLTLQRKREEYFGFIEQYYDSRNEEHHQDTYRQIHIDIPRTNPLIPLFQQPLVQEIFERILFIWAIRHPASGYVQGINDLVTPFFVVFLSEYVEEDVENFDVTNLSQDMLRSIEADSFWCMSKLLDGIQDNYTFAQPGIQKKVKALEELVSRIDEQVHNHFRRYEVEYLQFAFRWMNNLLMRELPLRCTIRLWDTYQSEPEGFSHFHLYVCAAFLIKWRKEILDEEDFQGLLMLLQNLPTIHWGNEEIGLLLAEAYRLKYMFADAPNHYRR
# UniProt B5MCY1: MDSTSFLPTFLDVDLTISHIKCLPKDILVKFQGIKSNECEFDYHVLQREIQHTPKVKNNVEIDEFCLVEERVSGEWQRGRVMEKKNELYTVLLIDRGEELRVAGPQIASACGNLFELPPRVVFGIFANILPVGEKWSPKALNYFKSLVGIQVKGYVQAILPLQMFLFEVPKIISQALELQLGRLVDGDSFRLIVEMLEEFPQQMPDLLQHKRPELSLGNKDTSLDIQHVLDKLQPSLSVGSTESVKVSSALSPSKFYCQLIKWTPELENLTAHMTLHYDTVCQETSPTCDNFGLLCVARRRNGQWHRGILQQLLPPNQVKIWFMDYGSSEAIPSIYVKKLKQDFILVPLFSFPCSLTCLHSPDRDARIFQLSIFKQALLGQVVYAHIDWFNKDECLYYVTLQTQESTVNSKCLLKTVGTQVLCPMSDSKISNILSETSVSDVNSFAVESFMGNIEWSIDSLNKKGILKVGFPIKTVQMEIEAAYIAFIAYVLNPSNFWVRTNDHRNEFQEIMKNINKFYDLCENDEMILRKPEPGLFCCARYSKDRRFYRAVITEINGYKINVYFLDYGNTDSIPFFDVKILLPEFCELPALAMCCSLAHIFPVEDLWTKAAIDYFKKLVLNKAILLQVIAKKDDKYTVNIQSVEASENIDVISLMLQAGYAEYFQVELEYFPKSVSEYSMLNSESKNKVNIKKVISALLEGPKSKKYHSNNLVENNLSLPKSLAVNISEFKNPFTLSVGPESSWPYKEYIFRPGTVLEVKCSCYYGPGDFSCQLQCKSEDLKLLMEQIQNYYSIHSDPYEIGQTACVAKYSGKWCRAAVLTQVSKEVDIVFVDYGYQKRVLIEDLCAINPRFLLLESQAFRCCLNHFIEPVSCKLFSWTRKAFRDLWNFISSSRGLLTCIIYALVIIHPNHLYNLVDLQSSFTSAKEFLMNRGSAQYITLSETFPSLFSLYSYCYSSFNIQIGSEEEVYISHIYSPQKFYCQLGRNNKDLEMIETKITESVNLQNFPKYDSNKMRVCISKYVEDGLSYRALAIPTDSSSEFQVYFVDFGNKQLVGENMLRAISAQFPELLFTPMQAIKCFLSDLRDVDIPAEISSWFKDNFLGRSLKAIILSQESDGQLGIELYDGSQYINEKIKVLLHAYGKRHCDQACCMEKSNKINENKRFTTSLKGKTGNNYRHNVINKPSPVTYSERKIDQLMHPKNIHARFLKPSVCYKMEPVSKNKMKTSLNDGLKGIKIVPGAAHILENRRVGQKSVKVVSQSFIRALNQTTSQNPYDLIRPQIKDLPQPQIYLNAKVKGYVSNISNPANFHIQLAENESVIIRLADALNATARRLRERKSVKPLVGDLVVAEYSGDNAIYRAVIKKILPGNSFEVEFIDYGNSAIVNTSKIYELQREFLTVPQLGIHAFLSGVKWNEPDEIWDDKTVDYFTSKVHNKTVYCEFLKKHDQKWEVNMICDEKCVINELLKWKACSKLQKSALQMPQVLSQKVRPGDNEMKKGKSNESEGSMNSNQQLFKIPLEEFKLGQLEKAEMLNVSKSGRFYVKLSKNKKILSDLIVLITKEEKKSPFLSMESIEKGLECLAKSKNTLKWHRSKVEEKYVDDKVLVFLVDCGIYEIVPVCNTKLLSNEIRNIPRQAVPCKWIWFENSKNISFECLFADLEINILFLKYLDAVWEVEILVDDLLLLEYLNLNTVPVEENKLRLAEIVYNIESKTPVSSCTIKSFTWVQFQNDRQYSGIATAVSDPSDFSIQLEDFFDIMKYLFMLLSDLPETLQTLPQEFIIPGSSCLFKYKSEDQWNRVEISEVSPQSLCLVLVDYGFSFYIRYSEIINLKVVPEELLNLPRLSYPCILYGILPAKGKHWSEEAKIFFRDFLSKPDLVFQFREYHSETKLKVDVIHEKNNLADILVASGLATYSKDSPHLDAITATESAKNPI
# UniProt Q9NUJ3: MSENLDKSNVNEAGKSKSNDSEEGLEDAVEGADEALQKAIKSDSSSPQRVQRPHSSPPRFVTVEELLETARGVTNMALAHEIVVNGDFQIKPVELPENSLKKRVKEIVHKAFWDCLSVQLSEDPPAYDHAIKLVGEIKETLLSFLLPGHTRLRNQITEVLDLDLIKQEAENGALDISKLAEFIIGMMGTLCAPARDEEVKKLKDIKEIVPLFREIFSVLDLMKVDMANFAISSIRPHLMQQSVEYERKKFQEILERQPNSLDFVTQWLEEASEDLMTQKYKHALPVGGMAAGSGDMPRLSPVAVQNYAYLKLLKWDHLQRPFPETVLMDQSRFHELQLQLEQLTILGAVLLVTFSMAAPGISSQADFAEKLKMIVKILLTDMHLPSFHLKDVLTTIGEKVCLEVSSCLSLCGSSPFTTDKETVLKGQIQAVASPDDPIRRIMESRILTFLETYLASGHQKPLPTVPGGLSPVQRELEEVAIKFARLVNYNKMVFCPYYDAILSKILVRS
# UniProt Q9UGI8: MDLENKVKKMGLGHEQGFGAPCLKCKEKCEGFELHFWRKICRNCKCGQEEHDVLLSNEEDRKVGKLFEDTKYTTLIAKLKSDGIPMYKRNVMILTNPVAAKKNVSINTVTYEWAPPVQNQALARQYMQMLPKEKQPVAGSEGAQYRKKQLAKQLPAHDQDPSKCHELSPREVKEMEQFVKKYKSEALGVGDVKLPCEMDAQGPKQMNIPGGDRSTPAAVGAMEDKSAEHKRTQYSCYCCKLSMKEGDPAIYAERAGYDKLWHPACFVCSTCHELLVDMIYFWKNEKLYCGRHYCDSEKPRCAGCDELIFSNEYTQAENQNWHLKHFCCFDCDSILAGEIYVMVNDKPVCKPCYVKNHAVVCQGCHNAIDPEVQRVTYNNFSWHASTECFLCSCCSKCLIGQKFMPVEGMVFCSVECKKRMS
# UniProt Q12800: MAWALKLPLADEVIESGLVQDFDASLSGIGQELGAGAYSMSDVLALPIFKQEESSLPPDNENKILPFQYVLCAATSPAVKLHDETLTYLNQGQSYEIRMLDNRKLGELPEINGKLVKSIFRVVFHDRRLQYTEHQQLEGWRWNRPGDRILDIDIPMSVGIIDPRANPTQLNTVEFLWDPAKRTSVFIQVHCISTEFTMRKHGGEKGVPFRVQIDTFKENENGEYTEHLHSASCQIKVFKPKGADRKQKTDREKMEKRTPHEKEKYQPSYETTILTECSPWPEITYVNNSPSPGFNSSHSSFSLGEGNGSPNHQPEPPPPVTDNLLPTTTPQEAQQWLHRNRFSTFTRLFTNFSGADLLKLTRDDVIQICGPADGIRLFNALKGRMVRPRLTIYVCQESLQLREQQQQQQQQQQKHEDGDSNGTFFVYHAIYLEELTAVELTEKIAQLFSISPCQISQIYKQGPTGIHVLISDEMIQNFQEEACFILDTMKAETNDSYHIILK
# UniProt Q9Y6J9: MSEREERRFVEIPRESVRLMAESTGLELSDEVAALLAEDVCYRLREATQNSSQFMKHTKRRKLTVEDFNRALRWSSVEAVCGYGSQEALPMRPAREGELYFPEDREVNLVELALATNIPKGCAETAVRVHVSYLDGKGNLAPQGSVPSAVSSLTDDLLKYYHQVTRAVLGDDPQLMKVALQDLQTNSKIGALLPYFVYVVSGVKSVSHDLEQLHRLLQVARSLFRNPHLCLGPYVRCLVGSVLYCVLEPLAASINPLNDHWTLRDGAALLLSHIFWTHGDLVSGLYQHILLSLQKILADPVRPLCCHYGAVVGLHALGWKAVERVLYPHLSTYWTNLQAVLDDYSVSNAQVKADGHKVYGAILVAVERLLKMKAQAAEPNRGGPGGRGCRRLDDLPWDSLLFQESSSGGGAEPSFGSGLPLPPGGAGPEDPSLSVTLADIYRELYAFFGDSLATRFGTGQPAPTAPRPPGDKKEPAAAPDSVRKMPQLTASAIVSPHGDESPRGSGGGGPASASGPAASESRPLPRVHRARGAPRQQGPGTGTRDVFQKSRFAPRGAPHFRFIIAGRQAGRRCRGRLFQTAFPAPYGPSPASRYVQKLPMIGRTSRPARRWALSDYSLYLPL
# UniProt Q17R31: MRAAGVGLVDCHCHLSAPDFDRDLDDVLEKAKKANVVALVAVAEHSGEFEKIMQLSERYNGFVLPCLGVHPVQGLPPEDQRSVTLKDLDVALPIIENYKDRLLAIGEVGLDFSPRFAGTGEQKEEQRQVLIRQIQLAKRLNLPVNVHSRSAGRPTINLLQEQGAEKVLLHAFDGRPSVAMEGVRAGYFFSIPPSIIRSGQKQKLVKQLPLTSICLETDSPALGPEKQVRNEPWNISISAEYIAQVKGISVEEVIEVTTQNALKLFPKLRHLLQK
# UniProt P17542, whole entry, looked up: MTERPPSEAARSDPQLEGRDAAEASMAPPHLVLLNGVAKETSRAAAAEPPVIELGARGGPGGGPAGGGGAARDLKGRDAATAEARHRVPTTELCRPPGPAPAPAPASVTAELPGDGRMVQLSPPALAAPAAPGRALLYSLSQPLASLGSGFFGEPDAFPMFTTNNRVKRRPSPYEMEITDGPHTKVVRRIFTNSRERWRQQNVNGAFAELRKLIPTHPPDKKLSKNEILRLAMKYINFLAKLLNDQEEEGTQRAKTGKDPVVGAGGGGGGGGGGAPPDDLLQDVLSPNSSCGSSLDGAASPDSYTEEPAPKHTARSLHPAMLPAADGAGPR
# Some of the results follow.
# How the values were obtained:
# Assay in all cases: log2 fold change, soluble protein after heating vs DMSO (PISA); higher = thermal stabilisation; K562 lysate, 10 uM; active = over 0.2 and 3.5 SD of the protein, either way, in both replicates (recomputed)
# [1] = compound: NCC(=O)Nc1ccc(-n2nc(C(F)(F)F)cc2-c2ccc3c(ccc4ccccc43)c2)cc1
# Summary of the method: (§1)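 Following dounce homogenisation of K562 pellets in PBS pH 7.4 with 1 mM MgCl2, crude extract at 1 mg/mL protein was incubated for 30 min with 10 μM compound. Aliquots were then heated for 3 min over 48°C-58°C and pooled, NP-40 was added to 0.5% at 4°C, and soluble protein was recovered as the supernatant at 21,000xg for 90 min. Channel-sum-equalised TMTpro 16plex LC-MS/MS quantified this protein. Each value, from duplicates, is a log-two fold change in thermal stability relative to solvent controls.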
# [2] = compound: O=C(CCCCCCC(=O)Nc1ccccc1)NO [vorinostat]
# Summary of the method: as §1
# [3] = compound: O=C(O)c1ccc2c(c1)nc(Nc1cccc(Cl)c1)c1ccncc12 [silmitasertib]
# Summary of the method: as §1
# [4] = compound: O=C1NC(=O)C(c2cnc3ccccn23)=C1c1cn2c3c(cc(F)cc13)CN(C(=O)N1CCCCC1)CC2
# Summary of the method: as §1
# [5] = compound: c1cn2cc(-c3ccc4cn[nH]c4c3)nc(Nc3ccc(N4CCOCC4)cc3)c2n1 [entospletinib]
# Summary of the method: as §1
Target,log2 fold change [1],log2 fold change [2],log2 fold change [3],log2 fold change [4],log2 fold change [5]
TARBP2 (UniProt Q15633),inactive: -0.017,active: -0.519,inactive: 0.024,inactive: -0.03,inactive: -0.002
TBC1D2 (UniProt Q9BYX2),inactive: -0.081,inactive: 0.002,inactive: 0,inactive: 0.071,inactive: 0.025
TBC1D22A (UniProt Q8WUA7),inactive: -0.002,inactive: 0.09,inactive: -0.001,inactive: -0.029,inactive: 0.027
TBL3 (UniProt Q12788),inactive: 0.015,active: -0.263,inactive: -0.011,inactive: -0.001,inactive: -0.023
TDRD3 isoform 3 (UniProt Q9H7E2),inactive: 0.23,inactive: -0.016,inactive: -0.03,inactive: 0.008,inactive: -0.041
TCIRG1 (UniProt Q13488),inactive: -0.032,inactive: -0.042,inactive: -0.026,inactive: 0.001,inactive: 0.047
TBC1D22B (UniProt Q9NU19),inactive: -0.06,inactive: 0.007,inactive: 0.049,inactive: -0.089,inactive: -0.024
TDRD15 (UniProt B5MCY1),inactive: 0.134,inactive: -0.182,inactive: 0.1,inactive: 0.051,inactive: 0.032
TEX10 (UniProt Q9NXF1),inactive: -0.004,inactive: -0.042,inactive: 0.155,inactive: 0.066,inactive: 0.014
"TEPSIN, A0A1B0GV70",inactive: -0.223,inactive: -0.235,inactive: 0.147,inactive: 0.035,inactive: -0.03
TDP2 isoform 2 (UniProt O95551),inactive: 0.003,inactive: -0.1,inactive: 0,inactive: -0.015,inactive: 0.012
TCP11L1 (UniProt Q9NUJ3),inactive: 0,active: -0.317,inactive: -0.043,inactive: 0.006,inactive: 0.019
TANK (UniProt Q92844),inactive: 0.041,inactive: -0.102,inactive: 0.124,inactive: 0.071,inactive: 0.132
TANGO6 (UniProt Q9C0B7),inactive: 0.007,active: -0.389,inactive: 0.019,inactive: -0.037,inactive: -0.009
TASOR (UniProt Q9UK61),inactive: 0.067,inactive: 0.114,inactive: 0,inactive: -0.01,inactive: -0.018
TFRC (UniProt P02786),inactive: 0.004,inactive: 0.13,inactive: -0.014,inactive: -0.013,inactive: 0.005
TEFM (UniProt Q96QE5),inactive: 0.115,inactive: -0.102,inactive: 0.016,inactive: -0.033,inactive: 0.04
TARSL2 (UniProt A2RTX5),inactive: 0.012,inactive: 0.013,inactive: -0.003,inactive: 0.001,inactive: 0.009
TES (UniProt Q9UGI8),inactive: 0.013,inactive: 0.033,inactive: -0.004,inactive: 0.026,inactive: -0.003
TFCP2 (UniProt Q12800),inactive: -0.072,active: -0.465,inactive: 0.045,inactive: 0.029,inactive: 0.051
TAGLN2 isoform 2 (UniProt P37802),inactive: -0.003,inactive: 0.06,inactive: 0.01,inactive: 0.008,inactive: -0.022
TESMIN (UniProt Q9Y4I5),inactive: -0.097,inactive: 0.158,inactive: 0.026,inactive: -0.039,inactive: 0.01
TBCD (UniProt Q9BTW9),inactive: 0.017,inactive: -0.192,inactive: -0.012,inactive: -0.008,inactive: 0.038
TBPL1 (UniProt P62380),inactive: 0.011,inactive: -0.108,inactive: 0.014,inactive: 0.053,inactive: -0.013
TAF6L (UniProt Q9Y6J9),inactive: -0.022,inactive: -0.086,inactive: 0.013,inactive: -0.033,inactive: -0.08
TGFB1 (UniProt P01137),inactive: -0.001,inactive: 0.108,inactive: -0.002,inactive: 0.012,inactive: -0.037
TATDN3 isoform 3 (UniProt Q17R31),inactive: 0.016,inactive: 0.089,inactive: 0.004,inactive: -0.042,inactive: 0.018

Target,log2 fold change [1],log2 fold change [2],log2 fold change [3],log2 fold change [4],log2 fold change [5]
TET1 (UniProt Q8NFU7),inactive: 0.228,inactive: 0.308,inactive: -0.123,inactive: 0.23,inactive: -0.025
TFR2 (UniProt Q9UP52),inactive: 0.036,inactive: 0.091,inactive: -0.023,inactive: -0.024,inactive: 0.029
TAPT1 (UniProt Q6NXT6),inactive: 0.023,inactive: 0.09,inactive: 0.007,inactive: 0.023,inactive: 0.001
TAMM41 isoform 3 (UniProt Q96BW9),inactive: 0.043,inactive: 0.162,inactive: 0.018,inactive: 0.008,inactive: 0.009
TARS2 (UniProt Q9BW92),inactive: -0.031,inactive: -0.252,inactive: 0.017,inactive: 0.019,inactive: -0.012
TALDO1 (UniProt P37837),inactive: -0.035,inactive: 0.048,inactive: 0.012,inactive: -0.014,inactive: 0.001
TBC1D24 (UniProt Q9ULP9),inactive: 0.023,inactive: -0.256,inactive: 0.038,inactive: -0.018,inactive: 0.057
TAL1 (UniProt P17542),inactive: 0.023,inactive: 0.021,inactive: 0.001,inactive: 0.015,inactive: -0.011
TBCB (UniProt Q99426),inactive: 0,inactive: -0.072,inactive: -0.01,inactive: 0.026,inactive: 0.004
TBRG4 (UniProt Q969Z0),inactive: 0.017,inactive: -0.238,inactive: 0.034,inactive: 0.008,inactive: 0.042
TFDP1 (UniProt Q14186),inactive: -0.005,inactive: -0.02,inactive: -0.039,inactive: 0.033,inactive: -0.027
TENT5C (UniProt Q5VWP2),inactive: 0.005,inactive: 0.056,inactive: -0.047,inactive: -0.09,inactive: 0.046
TDRD7 (UniProt Q8NHU6),inactive: -0.046,inactive: -0.147,inactive: 0.033,inactive: -0.021,inactive: -0.021
TCF3 (UniProt P15923),inactive: -0.007,inactive: -0.141,inactive: -0.031,inactive: 0,inactive: -0.03
TBC1D20 isoform 3 (UniProt Q96BZ9),inactive: -0.118,inactive: 0.088,inactive: -0.013,inactive: 0.058,inactive: 0.02
TFE3 (UniProt P19532),inactive: -0.025,inactive: 0.021,inactive: -0.035,inactive: -0.089,inactive: -0.026
TAOK1 (UniProt Q7L7X3),inactive: 0.02,inactive: 0.008,inactive: -0.02,inactive: 0.001,inactive: 0.008
TBK1 (UniProt Q9UHD2),inactive: -0.04,inactive: -0.361,inactive: 0.189,inactive: 0.125,inactive: 0.204
TFG (UniProt Q92734),inactive: -0.005,inactive: 0.11,inactive: -0.02,inactive: -0.001,inactive: 0.008
TDRKH (UniProt Q9Y2W6),inactive: -0.031,inactive: -0.223,inactive: 0.024,inactive: -0.052,inactive: 0.056
TCP1 (UniProt P17987),inactive: 0.008,inactive: -0.014,inactive: 0.016,inactive: 0.002,inactive: 0.02
TESC (UniProt Q96BS2),inactive: -0.036,inactive: 0.058,inactive: 0.103,inactive: -0.014,inactive: -0.111
TBC1D9B isoform 2 (UniProt Q66K14),inactive: 0.005,inactive: -0.048,inactive: -0.064,inactive: 0.031,inactive: 0.014
TERF2 (UniProt Q15554),inactive: 0.008,inactive: 0.158,inactive: 0.004,inactive: 0.003,inactive: -0.034
TECR (UniProt Q9NZ01),inactive: -0.031,inactive: 0.024,inactive: 0.076,inactive: 0.032,inactive: 0.033
TANGO2 isoform 4 (UniProt Q6ICL3),inactive: -0.07,inactive: -0.112,inactive: 0.027,inactive: -0.019,inactive: -0.045

# Laid out differently: entries from further up
Target	log2 fold change [1]	log2 fold change [2]	log2 fold change [3]	log2 fold change [4]	log2 fold change [5]
TET1 (UniProt Q8NFU7)	inactive: 0.228	inactive: 0.308	inactive: -0.123	inactive: 0.23	inactive: -0.025
TFG (UniProt Q92734)	inactive: -0.005	inactive: 0.11	inactive: -0.02	inactive: -0.001	inactive: 0.008
